These results are taken from the supplement of paper PMC12819154, “High-throughput peptide-centric local stability assay extends protein–ligand identification to membrane proteins, tissues and bacteria” (Nature Structural & Molecular Biology, 2025).

The chains behind the UniProt entries cited, without tags or fusion partners. Where a name states a change or a piece, a line headed by the entry shows the natural chain unless it says otherwise.
UniProt Q9QXP6: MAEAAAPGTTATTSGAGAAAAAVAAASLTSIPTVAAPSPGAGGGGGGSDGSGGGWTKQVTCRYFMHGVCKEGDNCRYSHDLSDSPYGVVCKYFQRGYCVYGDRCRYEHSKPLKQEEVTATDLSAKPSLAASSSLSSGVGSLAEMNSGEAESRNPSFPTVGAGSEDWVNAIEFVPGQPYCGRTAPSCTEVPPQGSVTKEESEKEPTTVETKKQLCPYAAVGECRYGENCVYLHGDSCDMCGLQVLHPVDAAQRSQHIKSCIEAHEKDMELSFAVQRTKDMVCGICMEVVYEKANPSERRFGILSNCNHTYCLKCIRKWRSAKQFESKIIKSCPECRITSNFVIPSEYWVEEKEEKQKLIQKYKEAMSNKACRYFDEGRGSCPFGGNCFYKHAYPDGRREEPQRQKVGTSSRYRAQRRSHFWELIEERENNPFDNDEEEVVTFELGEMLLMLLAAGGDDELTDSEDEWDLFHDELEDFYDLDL
UniProt Q9WU40: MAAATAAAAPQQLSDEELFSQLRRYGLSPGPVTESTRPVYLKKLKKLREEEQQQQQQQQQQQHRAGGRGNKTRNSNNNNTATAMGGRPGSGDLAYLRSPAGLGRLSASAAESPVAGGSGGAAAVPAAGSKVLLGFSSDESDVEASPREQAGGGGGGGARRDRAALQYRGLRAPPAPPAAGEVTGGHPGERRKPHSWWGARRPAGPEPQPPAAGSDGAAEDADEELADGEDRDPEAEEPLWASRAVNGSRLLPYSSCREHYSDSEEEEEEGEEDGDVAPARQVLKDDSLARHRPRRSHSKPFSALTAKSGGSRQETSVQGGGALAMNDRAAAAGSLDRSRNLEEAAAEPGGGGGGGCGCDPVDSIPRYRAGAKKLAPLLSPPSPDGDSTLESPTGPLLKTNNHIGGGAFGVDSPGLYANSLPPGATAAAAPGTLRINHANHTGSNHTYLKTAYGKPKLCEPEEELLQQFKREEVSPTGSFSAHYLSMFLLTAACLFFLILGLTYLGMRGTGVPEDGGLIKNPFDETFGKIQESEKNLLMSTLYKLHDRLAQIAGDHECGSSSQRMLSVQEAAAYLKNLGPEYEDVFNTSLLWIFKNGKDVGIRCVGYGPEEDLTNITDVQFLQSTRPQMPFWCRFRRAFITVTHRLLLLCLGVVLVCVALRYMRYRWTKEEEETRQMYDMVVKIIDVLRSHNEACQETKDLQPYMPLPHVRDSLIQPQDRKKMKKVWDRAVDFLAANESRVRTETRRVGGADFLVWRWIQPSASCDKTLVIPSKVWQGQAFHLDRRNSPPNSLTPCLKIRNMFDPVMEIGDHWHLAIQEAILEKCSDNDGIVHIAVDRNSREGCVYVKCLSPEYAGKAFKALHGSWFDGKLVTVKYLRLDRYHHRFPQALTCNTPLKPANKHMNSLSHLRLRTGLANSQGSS
UniProt Q9WV98: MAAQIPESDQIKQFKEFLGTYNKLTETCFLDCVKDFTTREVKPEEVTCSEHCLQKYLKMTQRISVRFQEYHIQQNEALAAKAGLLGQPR
UniProt Q9QYR9: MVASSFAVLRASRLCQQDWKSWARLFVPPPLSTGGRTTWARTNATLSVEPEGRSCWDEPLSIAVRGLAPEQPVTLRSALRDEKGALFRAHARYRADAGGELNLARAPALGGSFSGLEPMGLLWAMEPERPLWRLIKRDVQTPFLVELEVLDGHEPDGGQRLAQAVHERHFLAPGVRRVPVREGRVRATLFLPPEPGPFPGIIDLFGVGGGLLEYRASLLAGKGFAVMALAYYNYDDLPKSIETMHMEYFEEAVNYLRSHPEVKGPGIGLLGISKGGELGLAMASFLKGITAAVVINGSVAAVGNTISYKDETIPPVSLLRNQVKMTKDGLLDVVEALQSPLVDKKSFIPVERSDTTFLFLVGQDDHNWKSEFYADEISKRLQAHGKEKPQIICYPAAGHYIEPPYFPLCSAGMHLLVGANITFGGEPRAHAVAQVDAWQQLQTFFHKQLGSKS
UniProt Q9R1Q6: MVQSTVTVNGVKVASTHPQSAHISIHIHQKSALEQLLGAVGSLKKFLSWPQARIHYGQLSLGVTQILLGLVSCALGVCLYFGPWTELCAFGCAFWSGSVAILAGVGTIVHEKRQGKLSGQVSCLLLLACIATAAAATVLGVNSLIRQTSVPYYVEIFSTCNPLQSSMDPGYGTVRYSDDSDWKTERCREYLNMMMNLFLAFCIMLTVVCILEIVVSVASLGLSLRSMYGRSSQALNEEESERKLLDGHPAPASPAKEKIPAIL
UniProt Q9QZR0: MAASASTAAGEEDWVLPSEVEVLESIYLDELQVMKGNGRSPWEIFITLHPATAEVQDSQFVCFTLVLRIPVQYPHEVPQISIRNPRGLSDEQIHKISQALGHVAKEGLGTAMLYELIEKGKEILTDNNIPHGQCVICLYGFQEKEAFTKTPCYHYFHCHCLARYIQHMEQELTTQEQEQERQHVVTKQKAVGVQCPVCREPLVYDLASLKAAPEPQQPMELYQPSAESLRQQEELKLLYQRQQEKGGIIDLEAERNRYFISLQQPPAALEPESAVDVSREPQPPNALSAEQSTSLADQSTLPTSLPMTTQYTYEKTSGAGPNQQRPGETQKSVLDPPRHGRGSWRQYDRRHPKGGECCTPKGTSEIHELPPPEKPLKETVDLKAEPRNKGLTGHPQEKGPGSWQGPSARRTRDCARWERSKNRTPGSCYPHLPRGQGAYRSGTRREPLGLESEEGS
UniProt Q9WUM5: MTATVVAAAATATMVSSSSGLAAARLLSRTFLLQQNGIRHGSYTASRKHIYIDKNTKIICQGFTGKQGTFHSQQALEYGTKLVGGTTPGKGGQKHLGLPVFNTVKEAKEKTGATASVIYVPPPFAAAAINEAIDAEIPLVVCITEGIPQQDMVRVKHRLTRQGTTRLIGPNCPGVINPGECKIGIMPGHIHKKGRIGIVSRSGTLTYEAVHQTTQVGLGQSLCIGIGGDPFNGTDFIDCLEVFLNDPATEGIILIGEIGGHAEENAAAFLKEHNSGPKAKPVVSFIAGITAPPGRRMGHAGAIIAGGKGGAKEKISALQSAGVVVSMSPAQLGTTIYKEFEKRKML
UniProt Q9R1Q9, whole entry: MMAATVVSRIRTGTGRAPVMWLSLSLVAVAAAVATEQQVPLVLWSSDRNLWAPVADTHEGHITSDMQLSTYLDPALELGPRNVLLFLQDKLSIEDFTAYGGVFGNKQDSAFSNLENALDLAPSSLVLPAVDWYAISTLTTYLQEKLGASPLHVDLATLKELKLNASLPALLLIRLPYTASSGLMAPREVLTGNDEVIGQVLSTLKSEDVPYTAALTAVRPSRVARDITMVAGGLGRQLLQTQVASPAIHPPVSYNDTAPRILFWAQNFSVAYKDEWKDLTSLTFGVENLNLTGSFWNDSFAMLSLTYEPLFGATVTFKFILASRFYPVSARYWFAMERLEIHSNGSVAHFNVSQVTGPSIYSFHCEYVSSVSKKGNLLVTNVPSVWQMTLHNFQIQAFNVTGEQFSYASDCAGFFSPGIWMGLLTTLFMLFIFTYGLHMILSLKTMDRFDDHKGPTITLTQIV
UniProt Q9WV03: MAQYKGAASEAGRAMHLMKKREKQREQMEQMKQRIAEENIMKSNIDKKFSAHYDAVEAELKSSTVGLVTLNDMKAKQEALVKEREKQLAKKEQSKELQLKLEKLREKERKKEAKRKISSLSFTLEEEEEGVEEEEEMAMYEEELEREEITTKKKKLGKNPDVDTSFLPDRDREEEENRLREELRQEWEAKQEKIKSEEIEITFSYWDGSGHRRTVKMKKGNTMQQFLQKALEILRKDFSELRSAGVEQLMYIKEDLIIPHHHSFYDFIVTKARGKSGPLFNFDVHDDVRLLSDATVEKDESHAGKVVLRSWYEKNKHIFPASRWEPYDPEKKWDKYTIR
UniProt Q9QZQ8, whole entry: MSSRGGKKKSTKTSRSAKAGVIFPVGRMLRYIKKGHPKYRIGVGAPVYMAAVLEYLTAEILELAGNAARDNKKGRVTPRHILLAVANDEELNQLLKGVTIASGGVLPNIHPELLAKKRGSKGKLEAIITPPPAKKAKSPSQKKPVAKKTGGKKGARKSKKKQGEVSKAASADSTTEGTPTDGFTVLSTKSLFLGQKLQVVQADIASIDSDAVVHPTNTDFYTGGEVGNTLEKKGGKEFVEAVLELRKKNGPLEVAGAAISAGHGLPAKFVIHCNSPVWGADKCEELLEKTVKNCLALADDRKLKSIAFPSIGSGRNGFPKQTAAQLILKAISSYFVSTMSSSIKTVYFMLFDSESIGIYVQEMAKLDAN
UniProt Q9QXE0: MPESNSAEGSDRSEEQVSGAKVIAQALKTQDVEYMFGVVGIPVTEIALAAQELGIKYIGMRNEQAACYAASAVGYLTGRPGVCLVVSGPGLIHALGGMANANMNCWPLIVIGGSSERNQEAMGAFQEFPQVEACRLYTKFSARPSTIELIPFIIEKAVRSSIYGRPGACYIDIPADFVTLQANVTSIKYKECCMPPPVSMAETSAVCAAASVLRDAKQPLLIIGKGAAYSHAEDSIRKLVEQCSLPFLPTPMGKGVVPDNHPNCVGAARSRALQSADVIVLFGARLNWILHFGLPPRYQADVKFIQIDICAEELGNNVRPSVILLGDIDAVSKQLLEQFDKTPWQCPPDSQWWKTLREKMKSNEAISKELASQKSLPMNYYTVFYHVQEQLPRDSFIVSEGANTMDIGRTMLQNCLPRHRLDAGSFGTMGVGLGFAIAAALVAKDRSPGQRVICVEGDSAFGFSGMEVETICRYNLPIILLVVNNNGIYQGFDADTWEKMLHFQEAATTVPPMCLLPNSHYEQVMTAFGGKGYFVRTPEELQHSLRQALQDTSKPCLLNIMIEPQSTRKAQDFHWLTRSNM
UniProt Q9R1C7: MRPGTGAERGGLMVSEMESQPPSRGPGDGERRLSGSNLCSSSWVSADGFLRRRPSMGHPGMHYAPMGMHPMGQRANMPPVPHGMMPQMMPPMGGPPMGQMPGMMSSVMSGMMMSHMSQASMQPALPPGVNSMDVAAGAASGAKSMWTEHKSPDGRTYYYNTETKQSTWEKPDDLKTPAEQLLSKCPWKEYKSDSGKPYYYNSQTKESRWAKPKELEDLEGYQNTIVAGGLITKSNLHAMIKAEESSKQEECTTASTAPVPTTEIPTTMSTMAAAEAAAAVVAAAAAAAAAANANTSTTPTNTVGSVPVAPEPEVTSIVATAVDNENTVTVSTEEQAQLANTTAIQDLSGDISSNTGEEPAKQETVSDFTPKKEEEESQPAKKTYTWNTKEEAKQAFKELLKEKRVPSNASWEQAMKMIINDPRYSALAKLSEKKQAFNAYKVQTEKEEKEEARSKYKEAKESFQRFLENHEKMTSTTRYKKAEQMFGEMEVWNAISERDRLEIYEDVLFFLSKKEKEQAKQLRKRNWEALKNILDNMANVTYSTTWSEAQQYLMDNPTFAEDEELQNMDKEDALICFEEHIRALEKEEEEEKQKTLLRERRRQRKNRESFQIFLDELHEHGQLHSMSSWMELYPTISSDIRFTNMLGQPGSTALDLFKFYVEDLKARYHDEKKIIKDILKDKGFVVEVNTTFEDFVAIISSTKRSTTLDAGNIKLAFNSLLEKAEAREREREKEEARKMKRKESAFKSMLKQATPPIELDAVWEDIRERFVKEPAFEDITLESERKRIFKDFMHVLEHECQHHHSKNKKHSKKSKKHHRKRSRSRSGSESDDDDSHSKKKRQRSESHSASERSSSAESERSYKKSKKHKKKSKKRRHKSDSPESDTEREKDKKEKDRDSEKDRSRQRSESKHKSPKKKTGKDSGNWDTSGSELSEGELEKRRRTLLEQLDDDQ
UniProt Q9QXC1: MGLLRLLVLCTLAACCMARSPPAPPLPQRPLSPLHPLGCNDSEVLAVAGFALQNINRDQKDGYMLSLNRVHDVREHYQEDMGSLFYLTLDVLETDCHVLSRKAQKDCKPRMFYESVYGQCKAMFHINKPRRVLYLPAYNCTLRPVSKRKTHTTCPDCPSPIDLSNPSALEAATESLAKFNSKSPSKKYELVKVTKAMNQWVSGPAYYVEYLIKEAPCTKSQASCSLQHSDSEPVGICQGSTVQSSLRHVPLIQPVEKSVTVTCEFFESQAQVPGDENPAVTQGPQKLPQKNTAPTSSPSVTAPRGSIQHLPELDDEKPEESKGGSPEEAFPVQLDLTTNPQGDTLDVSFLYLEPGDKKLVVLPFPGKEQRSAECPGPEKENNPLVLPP
UniProt Q9QZ49: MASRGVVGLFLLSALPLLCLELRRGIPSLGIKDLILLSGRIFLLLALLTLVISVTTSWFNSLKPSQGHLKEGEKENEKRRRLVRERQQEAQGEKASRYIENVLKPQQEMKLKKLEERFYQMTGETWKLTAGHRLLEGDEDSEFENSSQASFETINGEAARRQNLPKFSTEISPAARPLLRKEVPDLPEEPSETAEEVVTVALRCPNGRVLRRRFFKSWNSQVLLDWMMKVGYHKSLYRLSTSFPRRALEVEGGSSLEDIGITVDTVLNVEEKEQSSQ
UniProt Q9QY93: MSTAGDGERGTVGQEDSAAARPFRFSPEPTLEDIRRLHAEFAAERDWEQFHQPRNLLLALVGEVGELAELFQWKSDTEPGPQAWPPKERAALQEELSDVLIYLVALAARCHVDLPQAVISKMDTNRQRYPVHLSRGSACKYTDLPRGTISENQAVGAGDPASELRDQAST

Some of the results follow. Small differences around the control level are noise.

Compound in this assay: CN[C@@H]1C[C@H]2O[C@@](C)([C@@H]1OC)n1c3ccccc3c3c4c(c5c6ccccc6n2c5c31)C(=O)NC4 [staurosporine]
The experiment in a line: log2 fold change of tryptic peptide abundance, ligand vs vehicle (limited proteolysis) (log2 ratio); higher = more trypsin-susceptible (destabilized). The note with it: ligand concentration: 20 uM; sample: mouse liver crude lysate; replicate design: treated separately.
Consider “UniProt Q9QXP6 (peptide sequence: FGILSNCNHTYCLK, peptide start residue: 299)”, for which the log2 fold change is 0.273.

Turning to “UniProt Q9WV80 (peptide sequence: LQEVECEEQR, peptide start residue: 313)”, the log2 fold change stood at 0.184.

Regarding “UniProt Q9WU40 (peptide sequence: QMYDMVVK, peptide start residue: 675)”, the log2 fold change amounted to 0.694.

As to “UniProt Q9WV98 (peptide sequence: EFLGTYNK, peptide start residue: 16)”, the log2 fold change was -0.381.

As to “UniProt Q9QXZ0 (peptide sequence: QVLDGGIIHHISGLR, peptide start residue: 2491)”, the log2 fold change was -0.393.

Consider “UniProt Q9QYR9 (peptide sequence: LAQAVHER, peptide start residue: 161)”, for which the log2 fold change is -0.421.

On to “UniProt Q9QXJ4 (peptide sequence: MLAGKPPVEGHVPTWGFNSVR, peptide start residue: 95)”, for which the log2 fold change was 0.347.

On to “UniProt Q9R226 (peptide sequence: EIEKFQK, peptide start residue: 30)”, for which the log2 fold change is 0.848.

Turning to “UniProt Q9WUP4 (peptide sequence: STFVSYPK, peptide start residue: 313)”, the log2 fold change was -0.148.

“UniProt Q9R0L6 (peptide sequence: MKTETESHSNMR, peptide start residue: 1528)”: the log2 fold change is -0.551.

As to “UniProt Q9R1Q6 (peptide sequence: KLLDGHPAPASPAKEK, peptide start residue: 243)”, the log2 fold change was -0.528.

For “UniProt Q9WTI7 (peptide sequence: KWAAQTIR, peptide start residue: 781)”, the log2 fold change amounted to 0.44.

Regarding “UniProt Q9QZ73 (peptide sequence: QFMIFTQSSEK, peptide start residue: 14)”, the log2 fold change came to 0.0437.

“UniProt Q9QZR0 (peptide sequence: GTSEIHELPPPEKPLKETVDLK, peptide start residue: 362)”: the log2 fold change was 0.239.

Take “UniProt Q9WV85 (peptide sequence: EHYVELR, peptide start residue: 67)”: the log2 fold change is 0.0261.

Turning to “UniProt Q9WUR9 (peptide sequence: GTVCERIAQNFGLQHLSSGHLLR, peptide start residue: 19)”, the log2 fold change was found to be 0.236.

Consider “UniProt Q9WUM5 (peptide sequence: MGHAGAIIAGGKGGAKEK, peptide start residue: 297)”, for which the log2 fold change was 0.268.

Regarding “UniProt Q9QYY8 (peptide sequence: RKDPLTHASNSLPR, peptide start residue: 233)”, the log2 fold change worked out at 0.428.

Consider “UniProt Q9QZ25 (peptide sequence: LGQGPGKLQ, peptide start residue: 492)”, for which the log2 fold change is -0.219.

With “UniProt Q9R1Q9 (peptide sequence: LGASPLHVDLATLK, peptide start residue: 146)”, the log2 fold change was -0.194.

As for “UniProt Q9QXT0 (peptide sequence: TDLCDHALHR, peptide start residue: 168)”, the log2 fold change came out at 0.0901.

As to “UniProt Q9WTX8 (peptide sequence: LHEENTHLR, peptide start residue: 262)”, the log2 fold change was -0.308.

Consider “UniProt Q9WV03 (peptide sequence: QREQMEQMK, peptide start residue: 24)”, for which the log2 fold change came out at 0.971.

For the target “UniProt Q9QZQ8 (peptide sequence: NCLALADDRK, peptide start residue: 293)”, the log2 fold change is -0.647.

Regarding “UniProt Q9QYE6 (peptide sequence: TEALEALR, peptide start residue: 317)”, the log2 fold change was -0.132.

As for “UniProt Q9QYC7 (peptide sequence: AAPRPSASCVYKR, peptide start residue: 335)”, the log2 fold change is -0.322.

For the target “UniProt Q9QY76 (peptide sequence: AKVEQVLSLEPQHELK, peptide start residue: 2)”, the log2 fold change was -0.342.

On to “UniProt Q9R1K9 (peptide sequence: MSPKPELTEDQKQEIR, peptide start residue: 19)”, for which the log2 fold change was 0.176.

Take “UniProt Q9QZA0 (peptide sequence: MVDNFRPLQPLMNR, peptide start residue: 277)”: the log2 fold change stood at 0.295.

For “UniProt Q9QXF8 (peptide sequence: NIASMVRPGGLLVIDHR, peptide start residue: 160)”, the log2 fold change worked out at 0.194.

As to “UniProt Q9QXE0 (peptide sequence: KAQDFHWLTR, peptide start residue: 569)”, the log2 fold change is 0.0775.

Turning to “UniProt Q9R1C7 (peptide sequence: SMWTEHK, peptide start residue: 144)”, the log2 fold change is 0.134.

For “UniProt Q9QY36 (peptide sequence: YVSLHVR, peptide start residue: 106)”, the log2 fold change turned out to be 0.215.

On to “UniProt Q9R0A1 (peptide sequence: VRPPLASFR, peptide start residue: 860)”, for which the log2 fold change was 0.168.

“UniProt Q9WV02 (peptide sequence: IVEVLLMKDR, peptide start residue: 34)”: the log2 fold change was found to be 0.351.

As for “UniProt Q9QYP6 (peptide sequence: LHLTNFTATYK, peptide start residue: 286)”, the log2 fold change was 0.455.

Consider “UniProt Q9QXC1 (peptide sequence: LVVLPFPGKEQR, peptide start residue: 359)”, for which the log2 fold change turned out to be 0.133.

For “UniProt Q9QZ49 (peptide sequence: YIENVLKPQQEMK, peptide start residue: 98)”, the log2 fold change was -0.144.

On to “UniProt Q9WTN3 (peptide sequence: GGTTAELEPRPTWR, peptide start residue: 1058)”, for which the log2 fold change is -0.37.

Consider “UniProt Q9QY93 (peptide sequence: YPVHLSR, peptide start residue: 129)”, for which the log2 fold change is -0.276.
